# Measurements taken from article PMC9239997, “Structural basis for mitoguardin-2 mediated lipid transport at ER-mitochondrial membrane contact sites” (Nature Communications, 2022).
# Protein sequences, listed by entry. Tags and fused reporters are not part of them. Residues count along the entry.
# UniProt Q9QY76, residues 1-125: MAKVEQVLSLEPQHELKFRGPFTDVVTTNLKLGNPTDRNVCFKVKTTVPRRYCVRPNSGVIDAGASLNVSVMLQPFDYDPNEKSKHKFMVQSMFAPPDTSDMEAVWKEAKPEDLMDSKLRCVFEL
# No constants are given. Whether binding was seen depends on the method and setting.
# T1: mouse MIGA2 residues 275-570, wild type (mouse) (UniProt Q8BK03)
# T1 sequence: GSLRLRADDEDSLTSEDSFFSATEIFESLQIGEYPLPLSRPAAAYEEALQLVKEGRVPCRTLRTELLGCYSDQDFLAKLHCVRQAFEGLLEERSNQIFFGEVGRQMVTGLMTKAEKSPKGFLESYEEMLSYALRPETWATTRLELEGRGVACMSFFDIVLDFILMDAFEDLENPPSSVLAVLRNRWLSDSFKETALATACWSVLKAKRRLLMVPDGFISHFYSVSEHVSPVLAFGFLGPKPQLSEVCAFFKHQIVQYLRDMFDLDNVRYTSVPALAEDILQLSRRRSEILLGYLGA
# B1: mouse MIGA2 LD targeting domain, residues 313-570 (domain or fragment, UniProt Q8BK03 313-570)
# chain: SRPAAAYEEALQLVKEGRVPCRTLRTELLGCYSDQDFLAKLHCVRQAFEGLLEERSNQIFFGEVGRQMVTGLMTKAEKSPKGFLESYEEMLSYALRPETWATTRLELEGRGVACMSFFDIVLDFILMDAFEDLENPPSSVLAVLRNRWLSDSFKETALATACWSVLKAKRRLLMVPDGFISHFYSVSEHVSPVLAFGFLGPKPQLSEVCAFFKHQIVQYLRDMFDLDNVRYTSVPALAEDILQLSRRRSEILLGYLGA
# B2: mouse MIGA2 residues 275-570, wild type (domain or fragment, UniProt Q8BK03 275-570)
# chain: T1 sequence
# How the values were obtained:
# [1] = biological target: T1, mouse MIGA2 residues 275-570, wild type (mouse); assay: ITC; mVAPB (wild type or mutant) in the syringe, mMIGA2^275-570 or mMIGA2^pFFAT in the cell; Microcal ITC200, 25 °C, 25 mM Tris-HCl pH 7.5, 150 mM NaCl, 4 mM β-mercaptoethanol; 20 injections of 2 μl; 1:1 binding model; both purified
# [2] = biological target: mouse MIGA2 LD targeting domain, residues 313-570 (mouse) (UniProt Q8BK03); assay: SEC; Superdex 200 increase 10/300 GL, 25 mM Tris-HCl pH 7.5, 150 mM NaCl, 5 mM DTT; proteins injected at 2–4 mg/ml; elution compared with molecular mass standards; both purified
# [3] = biological target: MSP domain of mouse VAPB (residues 1-125) (mouse (Mus musculus)) (UniProt Q9QY76); assay: ITC; Microcal ITC200, 25 °C, buffer C (25 mM Tris-HCl pH 7.5, 150 mM NaCl, 4 mM β-mercaptoethanol); 20 injections of 2 μl; 1:1 binding model; both purified
# [4] = biological target: MSP domain of mouse VAPB (residues 1-125) fused to GST (mouse (Mus musculus)) (UniProt Q9QY76); assay: pull-down; GST-fused mVAPB on Glutathione Sepharose 4B beads; purified mMIGA2^275-570 (wild type or mutant) added, 2 h at 4 °C in buffer A (25 mM Tris-HCl pH 7.5, 150 mM NaCl, 5 mM DTT); washed with buffer A with 0.1% Triton X-100; 12% SDS-PAGE; both purified
molecule,measurement,setting,value
MSP domain of mouse VAPB (residues 1-125) (from UniProt Q9QY76 1-125) (domain or fragment),binding,[1],no binding
B1,binding,[2],no binding (tested: 2–4 mg/ml)
B2,binding,[3],no binding
same,binding,[4],no binding
